Measured data: PubChem BioAssay AID1224826 (NIAID, 2016)
The whole screen tested about 17,000 reagents; shown is a part drawn at random. Of all reagents, about 1,110 (6.6%) got an active call. 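Active means lowered or raised reporter signal; replicate intensities are raw and not normalised per plate.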 Unmarked entries are inactive. The numbers tell different reagents against one gene apart. Not all columns of the deposit are shown.

Aim: 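Regulators of Tlr4 signalling leading to Tnf-alpha expression in macrophages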 (primary screen)
Cells: RAW264.7 G9 macrophages from mouse bearing reporters for p65 (GFP) and the Tnf promoter (mCherry)
Reagent: siRNA pool against mouse genes, 100 nM
Time to read-out: 16 h of LPS stimulation, after 2 days of siRNA transfection
Challenge: bacterial lipopolysaccharide (Salmonella minnesota R595), 10 ng/ml
Detection: 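Imaged Tnf reporter mCherry in nuclei, minus background, normalised per plate to the median and expressed as robust z-scores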
Reading the numbers: Tnf reporter robust z-score: higher = stronger Tnf promoter reporter signal after LPS; Tnf reporter intensity: higher = stronger Tnf promoter reporter signal
Active means: 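Called active when robust z-score is at most -1.3, matching the median of the Tlr4 knock-down control, or over 3; control wells and wells with under 50 cells never active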
Calls: active = Tnf reporter clearly lowered or raised; inactive = no clear change in Tnf reporter

target | reagent no. | Tnf reporter robust z-score | fewer than 50 cells in well | Tnf reporter intensity, replicate 1
Csn1s2a (casein alpha s2-like A) | 1 | -1.63 (active) | enough cells in well | 62.6
Klra23 (killer cell lectin-like receptor subfamily A, member 23) | 1 | -0.19 | enough cells in well | 217
Naa20 (N(alpha)-acetyltransferase 20, NatB catalytic subunit) | 1 | -0.03 | enough cells in well | 227
Pmm2 (phosphomannomutase 2) | 1 | -0.43 | enough cells in well | 216
Efcab12 (EF-hand calcium binding domain 12) | 1 | -0.53 | enough cells in well | 25.5
Tyro3 (TYRO3 protein tyrosine kinase 3) | 1 | -0.33 | enough cells in well | 158
Natd1 (N-acetyltransferase domain containing 1) | 1 | -0.29 | enough cells in well | 272
Dennd11 (DENN domain containing 11) | 1 | -0.44 | enough cells in well | 181
Ddit4l (DNA-damage-inducible transcript 4-like) | 1 | 1.58 | enough cells in well | 355
Brms1l (breast cancer metastasis-suppressor 1-like) | 1 | 1.08 | enough cells in well | 166
Stard3 (StAR related lipid transfer domain containing 3) | 1 | 1.71 | enough cells in well | 207
Prl2a1 (prolactin family 2, subfamily a, member 1) | 1 | 2.08 | enough cells in well | 225
Fbxo45 (F-box protein 45) | 1 | 0.54 | enough cells in well | 269
Or51s1 (olfactory receptor family 51 subfamily S member 1) | 1 | – | fewer than 50 cells per well; well left out of calls | 0
Tbc1d9 (TBC1 domain family, member 9) | 1 | 0.04 | enough cells in well | 197
Dab2ip (disabled 2 interacting protein) | 1 | -0.48 | enough cells in well | 152
Tfr2 (transferrin receptor 2) | 1 | -0.23 | enough cells in well | 190
Areg (amphiregulin) | 1 | -0.56 | enough cells in well | 140
Rps21 (ribosomal protein S21) | 1 | -0.36 | enough cells in well | 297
Chn2 (chimerin 2) | 1 | 0.05 | enough cells in well | 155
1110004F10Rik (RIKEN cDNA 1110004F10 gene) | 1 | 1.34 | enough cells in well | 404
Itga7 (integrin alpha 7) | 1 | 0.2 | enough cells in well | 220
Mcph1 (microcephaly, primary autosomal recessive 1) | 1 | 0.25 | enough cells in well | 214
Megf11 (multiple EGF-like-domains 11) | 1 | -0.3 | enough cells in well | 212
Vstm2l (V-set and transmembrane domain containing 2-like) | 1 | 2.16 | enough cells in well | 476
Mmab | 1 | -0.5 | enough cells in well | 247
Gm38410 (predicted gene, 38410) | 1 | -1.83 (active) | enough cells in well | 54.8
Pcyt1a (phosphate cytidylyltransferase 1, choline, alpha isoform) | 1 | 0.66 | enough cells in well | 171
Dnm1 (dynamin 1) | 1 | -0.87 | enough cells in well | 120
Mrps31 (mitochondrial ribosomal protein S31) | 1 | 2.35 | enough cells in well | 295
Dlg2 (discs large MAGUK scaffold protein 2) | 1 | -1.15 | enough cells in well | 114
Tmem252 (transmembrane protein 252) | 1 | -1.43 (active) | enough cells in well | 101
4833432B22RIK | 1 | – | fewer than 50 cells per well; well left out of calls | 361
Rhoj (ras homolog family member J) | 1 | -1.54 (active) | enough cells in well | 150
Tafa4 (TAFA chemokine like family member 4) | 1 | 1.01 | enough cells in well | 145
Slc66a1 | 1 | 0.3 | enough cells in well | 158
Psmb11 (proteasome (prosome, macropain) subunit, beta type, 11) | 1 | 1.2 | enough cells in well | 251
Otx1 (orthodenticle homeobox 1) | 1 | -1.3 (active) | enough cells in well | 155
Grsf1 (G-rich RNA sequence binding factor 1) | 1 | 0.23 | enough cells in well | 277
Tom1 (target of myb1 trafficking protein) | 1 | -0.55 | enough cells in well | 168
Snn (stannin) | 1 | -0.95 | enough cells in well | 192
Rpl3l (ribosomal protein L3-like) | 1 | 1.09 | enough cells in well | 175
Slc66a3 | 1 | 0.89 | enough cells in well | 192
Pcsk9 (proprotein convertase subtilisin/kexin type 9) | 1 | – | fewer than 50 cells per well; well left out of calls | 123
Fyn (Fyn proto-oncogene, Src family tyrosine kinase) | 1 | 0.93 | enough cells in well | 278
Scap (SREBF chaperone) | 1 | -0.71 | enough cells in well | 251
B3gnt5 | 1 | 0.19 | enough cells in well | 211
Klhl4 (kelch-like 4) | 1 | 1.1 | enough cells in well | 221
Inhbb (inhibin beta-B) | 1 | 0.18 | enough cells in well | 216
Fli1 (Fli1 proto-oncogene, ETS transcription factor) | 1 | -0.57 | enough cells in well | 249
F2rl2 (coagulation factor II thrombin receptor like 2) | 1 | -0.03 | enough cells in well | 173
Ssh2 (slingshot protein phosphatase 2) | 1 | 0.23 | enough cells in well | 272
Plcxd1 | 1 | -0.19 | enough cells in well | 152
Rps23 (ribosomal protein S23) | 1 | – | fewer than 50 cells per well; well left out of calls | 119
Rsu1 (Ras suppressor protein 1) | 1 | -0.06 | enough cells in well | 325
Ano4 (anoctamin 4) | 1 | – | fewer than 50 cells per well; well left out of calls | 83.5
Ehhadh | 1 | 0.25 | enough cells in well | 263
Brd2 (bromodomain containing 2) | 1 | 2.1 | enough cells in well | 301
Tmem218 (transmembrane protein 218) | 1 | – | fewer than 50 cells per well; well left out of calls | 110
Fam178b (family with sequence similarity 178, member B) | 1 | 0.05 | enough cells in well | 115
Tmem39a (transmembrane protein 39a) | 1 | -0.25 | enough cells in well | 297
Irak4 (interleukin-1 receptor-associated kinase 4) | 1 | -1.14 | enough cells in well | 127
Tcp10a (t-complex protein 10a) | 1 | -0.22 | enough cells in well | 115
Tcp10a (t-complex protein 10a) | 2 | – | fewer than 50 cells per well; well left out of calls | 98.3
Pdx1 (pancreatic and duodenal homeobox 1) | 1 | -0.79 | enough cells in well | 194
Suv39h2 (suppressor of variegation 3-9 2) | 1 | -0.72 | enough cells in well | 217
Gamt (guanidinoacetate methyltransferase) | 1 | -0.38 | enough cells in well | 236
Cry1 (cryptochrome circadian regulator 1) | 1 | 0.83 | enough cells in well | 283
Pdia6 (protein disulfide isomerase associated 6) | 1 | 0.85 | enough cells in well | 297
F10 (coagulation factor X) | 1 | -0.39 | enough cells in well | 206
Hsd17b1 (hydroxysteroid (17-beta) dehydrogenase 1) | 1 | 0.09 | enough cells in well | 261
Aif1 (allograft inflammatory factor 1) | 1 | -0.34 | enough cells in well | 171
Bmper (BMP-binding endothelial regulator) | 1 | -0.77 | enough cells in well | 11.9
Rnf183 (ring finger protein 183) | 1 | – | fewer than 50 cells per well; well left out of calls | 103
Ampd2 (adenosine monophosphate deaminase 2) | 1 | -0.29 | enough cells in well | 207

As entered above.
Pcsk9 (proprotein convertase subtilisin/kexin type 9), fewer than 50 cells in well → fewer than 50 cells per well; well left out of calls
Ano4 (anoctamin 4), fewer than 50 cells in well → fewer than 50 cells per well; well left out of calls
Fbxo45 (F-box protein 45), fewer than 50 cells in well → enough cells in well
For “fewer than 50 cells in well”, Tcp10a (t-complex protein 10a) #2 has fewer than 50 cells per well; well left out of calls
